Results on 1 molecule are retold here after paper PMC3344845, “Structure of Bradavidin – C-Terminal Residues Act as Intrinsic Ligands” (PLoS ONE, 2012).

These are yes or no findings as the source states them, for the method shown. Where a sequence is shown, tags or fusion partners need not be part of it.

This assay addresses rhizavidin (Rhizobium etli). Put plainly: ITC; core-bradavidin, avidin, streptavidin or rhizavidin in the cell, Brad-tag in the syringe, 40°C, 50 mM sodium phosphate pH 7.0, 100 mM NaCl; n is the stoichiometry per subunit; both purified.

Take SEKLSNTK [Brad-tag (synthetic peptide SEKLSNTK)]: the binding result is reported as “no binding”.
